# Test system: CWR-22Rv1 prostate cancers
# Experiment: Vascular volume, albumin-Evans Blue accumulation (EPR effect) and growth in CWR-22Rv1 bearing mice treated with tasquinimod
# Format: in vivo, mouse
# Method: To evaluate the potential importance of an EPR effect for enhancing tumor specific tasquinimod uptake and thus anti-cancer potency, albumin retention in plasma and normal tissue vs. prostate cancer was determined. To do this, nude mice bearing CWR-22Rv1 prostate cancers were injected intravenously (IV) with Evans Blue (EB) at a dose (10mg/kg) so that all of the dye is initially bound to albumin within the blood. Twenty-four hours later, the amount of albumin-EB complex retained in plasma vs. accumulated in liver, kidney, or CWR-22Rv1 prostate cancers determined. The results are expressed as concentration of extractable albumin-EB in plasma vs. the specified tissue. These studies document that prostate cancers accumulate a concentration of albumin-EB that is equal to that in the plasma by 24 hours, Figure 3C. When normalized to vascular volume, the albumin-EB accumulation by prostate cancers is more than two fold greater (p<0.05) compared to liver and more than 8 fold greater (p<0.05) compared to kidney, Figure 3C. […] Such continuous treatment with tasquinimod decreased the vascular volume within the cancers by nearly half (p<0.05), Figure 3C. […] When normalized to this decreased vascular volume, the accumulation of albumin-EB 24 hours post IV injection of the dye in cancers is increased (p<0.05) by 60% compared to non-tasquinimod treated hosts, with no change in normalized accumulation in either the kidney or liver, Figure 3C.
# Tissue vascular volumes for liver, kidney, and CWR-22Rv1 cancers were determined previously via intravenous infusion of^51 Chromium (Perkin Elmer, Shelton, CT) labeled red blood cells and the result expressed as percent vascular volume as described previously.
# EPR effect was determined using Evans Blue as described previously with the modification that 24 hours after the albumin in the blood of tumor bearing nude mice was labeled via IV injection of Evans Blue (EB) at a dose of 10mg/kg, the animals were anesthetized, blood collected, and then animals were perfused with saline to remove blood from the host tissues before harvesting liver, kidney, and prostate cancer xenograft tissue. The results are expressed as the concentration of EB-labeled albumin retained in the blood or specified tissue.
smiles,measurement,setting,value
COc1cccc2c1c(O)c(C(=O)N(C)c1ccc(C(F)(F)F)cc1)c(=O)n2C [Tasquinimod],Albumin-EB Accumulation 24 hours Post IV injection (Kidney),10mg/kg/day for 30 days,6.5 ± 0.8 µM
same,Albumin-EB Accumulation 24 hours Post IV injection (Liver),10mg/kg/day for 30 days,24.8 ± 4.2 µM
same,Albumin-EB Accumulation 24 hours Post IV injection (Plasma),10mg/kg/day for 30 days,12.8 ± 2.9 µM
same,Albumin-EB Accumulation 24 hours Post IV injection (Prostate Cancer),10mg/kg/day for 30 days,13.1 ± 2.2 µM
same,Albumin-EB Accumulation Normalized to Vascular Volume (Kidney),10mg/kg/day for 30 days,0.7±0.2
same,Albumin-EB Accumulation Normalized to Vascular Volume (Liver),10mg/kg/day for 30 days,3.1±0.4
same,Albumin-EB Accumulation Normalized to Vascular Volume (Prostate Cancer),10mg/kg/day for 30 days,9.4±1.0
same,Percent Vascular Volume (Kidney),10mg/kg/day for 30 days,9.6±3.3
same,Percent Vascular Volume (Liver),10mg/kg/day for 30 days,8.5±0.6
same,increase of albumin-EB accumulation in cancers normalized to vascular volume vs non-tasquinimod treated hosts,"24 hours post IV dye, 10 mg/kg/day for a month",60%

# Source: article PMC4226669, “Anti-cancer potency of tasquinimod is enhanced via albumin-binding facilitating increased uptake in the tumor microenvironment” (Oncotarget, 2014)
